Two molecules from publication PMC5823975 can be followed below.

By UniProt entry, the sequences of proteins in these tests, tags left out. Where a name states a change or a piece, a line headed by the entry shows the natural chain unless it says otherwise.
UniProt Q62210: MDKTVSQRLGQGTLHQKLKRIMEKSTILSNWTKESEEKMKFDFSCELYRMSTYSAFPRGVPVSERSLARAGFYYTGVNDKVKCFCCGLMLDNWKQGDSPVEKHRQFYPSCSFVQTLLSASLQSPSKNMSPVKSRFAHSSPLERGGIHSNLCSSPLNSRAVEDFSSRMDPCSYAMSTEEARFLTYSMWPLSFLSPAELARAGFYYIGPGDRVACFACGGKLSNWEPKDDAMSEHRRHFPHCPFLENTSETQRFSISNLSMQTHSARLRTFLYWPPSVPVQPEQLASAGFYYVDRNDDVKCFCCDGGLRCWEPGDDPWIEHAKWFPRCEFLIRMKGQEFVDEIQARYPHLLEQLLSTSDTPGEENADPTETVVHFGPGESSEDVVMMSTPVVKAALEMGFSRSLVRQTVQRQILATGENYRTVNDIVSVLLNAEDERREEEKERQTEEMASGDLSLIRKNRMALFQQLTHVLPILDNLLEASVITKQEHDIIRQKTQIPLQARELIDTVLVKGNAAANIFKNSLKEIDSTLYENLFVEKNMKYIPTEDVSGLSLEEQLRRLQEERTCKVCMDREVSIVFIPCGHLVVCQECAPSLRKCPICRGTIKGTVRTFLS

Results are given in words; binding and its absence hold for the method and conditions named. In cells and extracts the contact can be indirect. Some results given as binding are weak or reduced against the parent protein; the word gives no strength.

In experiment [1] the target is cIAP1^UBAmut (mouse cIAP1 M396A F398A) (mouse) (UniProt Q62210). Nature of the experiment: pull-down; biotinylated SMAC mimetic used to purify IAPs from lysates of cIAP2^-/- and cIAP1^UBAmut MEFs; TRAF2 by immunoblot.
For experiment [2], the target named is cIAP1 (endogenous, mouse cells) (mouse (endogenous in MEFs and MDFs)) (UniProt Q62210). The experiment is described as above.
Experiment [3] addresses RIPK3 (endogenous, mouse BMDMs) (mouse (endogenous in BMDMs)), Q9QZL0. Nature of the experiment: proximity ligation; primary BMDMs of cIAP2^-/- and cIAP1^UBAmut animals, 1 ng/mL TNF, RIPK1 and RIPK3 antibodies, Duolink kit, confocal microscope. The conditions noted are these: remark: other sources report otherwise.

B1: TRAF2 (endogenous, MEFs) (protein, UniProt P39429 1-501)
chain: MAAASVTSPGSLELLQPGFSKTLLGTRLEAKYLCSACKNILRRPFQAQCGHRYCSFCLTSILSSGPQNCAACVYEGLYEEGISILESSSAFPDNAARREVESLPAVCPNDGCTWKGTLKEYESCHEGLCPFLLTECPACKGLVRLSEKEHHTEQECPKRSLSCQHCRAPCSHVDLEVHYEVCPKFPLTCDGCGKKKIPRETFQDHVRACSKCRVLCRFHTVGCSEMVETENLQDHELQRLREHLALLLSSFLEAQASPGTLNQVGPELLQRCQILEQKIATFENIVCVLNREVERVAVTAEACSRQHRLDQDKIEALSNKVQQLERSIGLKDLAMADLEQKVSELEVSTYDGVFIWKISDFTRKRQEAVAGRTPAIFSPAFYTSRYGYKMCLRVYLNGDGTGRGTHLSLFFVVMKGPNDALLQWPFNQKVTLMLLDHNNREHVIDAFRPDVTSSSFQRPVSDMNIASGCPLFCPVSKMEAKNSYVRDDAIFIKAIVDLTGL
Consider B1, for which the binding entry in experiment [1] and in experiment [2] was “binds” each time.

B2: RIPK1 (endogenous, mouse cells), Q60855 1-656 (protein)
chain: MQPDMSLDNIKMASSDLLEKTDLDSGGFGKVSLCYHRSHGFVILKKVYTGPNRAEYNEVLLEEGKMMHRLRHSRVVKLLGIIIEEGNYSLVMEYMEKGNLMHVLKTQIDVPLSLKGRIIVEAIEGMCYLHDKGVIHKDLKPENILVDRDFHIKIADLGVASFKTWSKLTKEKDNKQKEVSSTTKKNNGGTLYYMAPEHLNDINAKPTEKSDVYSFGIVLWAIFAKKEPYENVICTEQFVICIKSGNRPNVEEILEYCPREIISLMERCWQAIPEDRPTFLGIEEEFRPFYLSHFEEYVEEDVASLKKEYPDQSPVLQRMFSLQHDCVPLPPSRSNSEQPGSLHSSQGLQMGPVEESWFSSSPEYPQDENDRSVQAKLQEEASYHAFGIFAEKQTKPQPRQNEAYNREEERKRRVSHDPFAQQRARENIKSAGARGHSDPSTTSRGIAVQQLSWPATQTVWNNGLYNQHGFGTTGTGVWYPPNLSQMYSTYKTPVPETNIPGSTPTMPYFSGPVADDLIKYTIFNSSGIQIGNHNYMDVGLNSQPPNNTCKEESTSRHQAIFDNTTSLTDEHLNPIRENLGRQWKNCARKLGFTESQIDEIDHDYERDGLKEKVYQMLQKWLMREGTKGATVGKLAQALHQCCRIDLLNHLIRASQS
As to B2, the binding entry in experiment [3] is recorded as “binds”.
